# Laboratory results taken from paper PMC7862700.
# Protein sequences, listed by entry. Tags and fused reporters are not part of them. Lines headed by an entry give the natural chain unless they say otherwise; changes in a name come on top.
# UniProt Q01892: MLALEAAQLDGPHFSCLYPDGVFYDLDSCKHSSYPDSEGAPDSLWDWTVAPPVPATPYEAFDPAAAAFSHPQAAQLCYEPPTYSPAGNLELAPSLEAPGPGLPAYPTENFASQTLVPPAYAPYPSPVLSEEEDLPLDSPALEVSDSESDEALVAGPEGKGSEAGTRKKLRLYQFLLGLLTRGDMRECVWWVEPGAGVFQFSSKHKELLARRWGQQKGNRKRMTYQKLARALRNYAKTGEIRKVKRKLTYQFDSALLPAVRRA
# UniProt P41161: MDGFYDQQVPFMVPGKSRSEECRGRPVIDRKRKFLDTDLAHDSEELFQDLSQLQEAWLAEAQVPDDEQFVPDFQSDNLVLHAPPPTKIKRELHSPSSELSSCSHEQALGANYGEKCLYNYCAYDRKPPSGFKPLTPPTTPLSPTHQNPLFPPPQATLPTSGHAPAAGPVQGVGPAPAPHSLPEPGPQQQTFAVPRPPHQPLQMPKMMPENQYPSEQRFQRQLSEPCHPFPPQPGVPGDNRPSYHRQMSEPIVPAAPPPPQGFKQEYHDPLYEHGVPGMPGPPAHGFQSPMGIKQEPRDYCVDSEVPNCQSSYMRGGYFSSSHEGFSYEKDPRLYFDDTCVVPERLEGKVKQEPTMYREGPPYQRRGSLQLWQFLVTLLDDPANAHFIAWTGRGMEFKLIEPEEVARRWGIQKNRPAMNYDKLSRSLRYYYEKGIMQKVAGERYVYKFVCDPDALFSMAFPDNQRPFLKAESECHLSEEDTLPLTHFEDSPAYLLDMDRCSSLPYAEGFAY
# UniProt Q99607: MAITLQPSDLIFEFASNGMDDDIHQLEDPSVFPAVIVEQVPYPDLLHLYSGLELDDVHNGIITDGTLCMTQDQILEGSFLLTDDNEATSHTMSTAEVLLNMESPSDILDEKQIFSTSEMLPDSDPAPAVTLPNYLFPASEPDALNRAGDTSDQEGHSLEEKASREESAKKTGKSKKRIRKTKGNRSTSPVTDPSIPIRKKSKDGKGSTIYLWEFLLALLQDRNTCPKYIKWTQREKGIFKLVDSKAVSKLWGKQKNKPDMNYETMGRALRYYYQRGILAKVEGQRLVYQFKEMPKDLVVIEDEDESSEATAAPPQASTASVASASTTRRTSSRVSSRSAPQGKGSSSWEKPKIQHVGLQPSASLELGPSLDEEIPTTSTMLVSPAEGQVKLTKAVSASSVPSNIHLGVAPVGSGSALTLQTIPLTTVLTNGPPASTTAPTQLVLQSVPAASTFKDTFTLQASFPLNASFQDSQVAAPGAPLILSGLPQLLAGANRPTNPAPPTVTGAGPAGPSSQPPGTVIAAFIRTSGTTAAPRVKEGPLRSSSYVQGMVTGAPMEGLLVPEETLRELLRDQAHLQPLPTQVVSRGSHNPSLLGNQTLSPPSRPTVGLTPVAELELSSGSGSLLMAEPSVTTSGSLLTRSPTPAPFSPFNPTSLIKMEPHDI
# The list shows a part of the results, in another mix than the full data. At the low end of the ranking the order means little.
# Legend:
# Assay in all cases: DAPPL (digital affinity profiling via proximity ligation, sequencing)
# Conditions in all cases: 10 mM Tris-HCl pH 7.5, 50 mM NaCl, 1 mM DTT, 4% glycerol, room temperature, 30 min; GST-TFs on glutathione beads, 16-mer random dsDNA library, 0.1% …; high values mean tight binding; double strand, one strand shown; scale: fold enrichment (6-mer frequency, TF over GST control)
# FLI1 = target: T1, FLI1 (UniProt Q01543)
# T1 sequence: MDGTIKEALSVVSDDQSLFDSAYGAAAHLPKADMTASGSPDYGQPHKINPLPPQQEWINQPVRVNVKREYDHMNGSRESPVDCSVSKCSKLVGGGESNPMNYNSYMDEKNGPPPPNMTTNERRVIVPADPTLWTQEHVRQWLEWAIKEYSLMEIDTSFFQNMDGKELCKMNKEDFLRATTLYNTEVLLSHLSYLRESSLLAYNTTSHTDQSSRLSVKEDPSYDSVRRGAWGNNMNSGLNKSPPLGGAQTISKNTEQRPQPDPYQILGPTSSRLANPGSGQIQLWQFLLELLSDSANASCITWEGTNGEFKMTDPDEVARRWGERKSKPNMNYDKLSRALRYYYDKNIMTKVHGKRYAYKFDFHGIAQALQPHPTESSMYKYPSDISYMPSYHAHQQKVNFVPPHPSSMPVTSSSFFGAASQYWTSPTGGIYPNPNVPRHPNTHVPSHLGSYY
# EHF = target: T2, EHF (UniProt Q9NZC4)
# T2 sequence: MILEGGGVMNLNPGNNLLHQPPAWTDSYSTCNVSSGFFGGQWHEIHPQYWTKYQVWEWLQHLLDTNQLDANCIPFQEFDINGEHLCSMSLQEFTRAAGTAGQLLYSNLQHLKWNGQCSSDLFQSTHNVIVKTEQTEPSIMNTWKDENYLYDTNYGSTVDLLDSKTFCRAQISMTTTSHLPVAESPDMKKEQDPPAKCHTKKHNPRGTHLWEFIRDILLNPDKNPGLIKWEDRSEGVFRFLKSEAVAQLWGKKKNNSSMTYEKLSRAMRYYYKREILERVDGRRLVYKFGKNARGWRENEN
# SPIB = SPIB (UniProt Q01892)
# ETV5 = ETV5 (UniProt P41161)
# ELF4 = ELF4 (UniProt Q99607)
Sequence,binding signal (FLI1),binding signal (EHF),binding signal (SPIB),binding signal (ETV5),binding signal (ELF4)
CCTAGG,0.93,0.956,0.976,0.963,
AAAGAT,1.18,,1.3,1.25,
GAATGT,,,,1.07,1.07
TAATCC,,,,1.3,1.23
ATGTGC,,,,1.16,1.17
GTTACT,,,,1.28,1.18
CGCTGG,,,,1,1.02
TTGGGC,1.03,1.1,1.1,1.12,
GCTCCC,1.37,,1.28,1.39,
TTCACA,1.27,1.2,1.25,1.16,
AATTAA,1.26,,1.21,1.29,
GCATCT,,,,0.964,0.948
CTACGG,1.19,,1.28,1.21,
TCCCGG,,,,2.27,2
ATTAAC,,,,1.27,1.3
GCACTA,,,,1.13,1.27
ACTTGT,1.27,,1.45,1.21,
GATGTC,1.25,,1.37,1.37,

# Record cards, as listed above.
# CTACGG reads binding signal (FLI1): 1.19; binding signal (SPIB): 1.28; binding signal (ETV5): 1.21
# GCTCCC reads binding signal (FLI1): 1.37; binding signal (SPIB): 1.28; binding signal (ETV5): 1.39

# Remaining list, next part

Sequence,binding signal (FLI1),binding signal (EHF),binding signal (SPIB),binding signal (ETV5),binding signal (ELF4)
TACCCC,1.14,,1.09,1.07,
GAATGC,0.911,0.96,0.952,0.914,
CCATCA,,,,1.23,1.2
CACGAC,,,,1.28,1.35
ACGCGC,0.999,,0.986,0.977,
TGCATC,1.35,,1.35,1.39,
TAATCA,,,,1.18,1.11
TGACCC,,,,1.41,1.48
AATACC,1.25,1.19,1.16,1.13,
TTCGAG,,,,1.28,1.29
CCATGG,1.08,1.06,0.906,0.986,
ACCCGA,,,,1.08,1.03
TCTGTG,,,,1.08,1.2
TGCCCT,1.21,,1.16,1.11,
GTTTTA,1.17,,1.16,1.07,
TCTGAC,,,,1.15,1.35
TCGATG,,,,1.11,1.2
CTTAAG,,,,0.973,1.07
